From PubChem BioAssay AID2685 (National Center for Advancing Translational Sciences (NCATS), 2010)
Hit rate of the full screen: of about 320,000 compounds, about 2,100 (0.66%) were called active. This list was built around the results that the source calls inconclusive (neither active nor inactive); the mix of calls is not that of the screen. The call rests on the fitted dose curve; in most records, active means well fitted inhibition curve with a large enough effect in the signal ratio, with a control signal flat (not every such curve was filed as active); inconclusive means small, poorly fitted or top-dose-only effect, or effect the other way, or a change in a side signal; inactive means flat fitted curve, though single readings scatter; the % refers to the signal ratio. Potencies of inconclusive entries are doubtful fits and often do not repeat.

assay: qHTS Assay for Lipid Storage Modulators in Drosophila S3 Cells; details: BODIPY lipid droplet fluorescence, 18-24 h, cells fed with added oleic acid; lipid storage change, negative = inhibition: at 46.1 µM (top of the series) unless noted
Outline: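 Drosophila S3 cells got compounds at several concentrations plus oleic acid (400 uM solution). Laser-scanning cytometry with 488 nm excitation read lipid droplets at 500-530 nm and cells at 575-640 nm. Percent activity was relative to 20 uM Triacsin C.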
On the % scale 0 is the no-effect control and ±100 the full control effect; potency means the concentration at half of the fitted maximal effect.

Structure (SMILES)	lipid storage change, negative = inhibition	Potency
NC(=S)N/N=C/c1ccc(-c2cc(Cl)cc(Cl)c2)o1	inconclusive: 19.3%	
O=C(CN1C(=O)NC2(CCCCCC2)C1=O)c1cccs1		inconclusive: 0.731 µM [activator, full curve]
COc1cccc(/C=C2\SC(=S)N(N3C(=O)CCCC3=O)C2=O)c1	inconclusive: 31.8%	
CCS(=O)(=O)N1CCC(NC(=O)c2ccco2)CC1		inconclusive: 5.17 µM [falling, full curve]
COc1ccc(CCNC(=O)CN2C(=O)c3ccccc3S2(=O)=O)cc1OC		active: 23.1 µM
Nn1c(SCc2cccc(Br)c2)nnc1-c1cccnc1	inconclusive: 8.77%	
COc1cc(OC)nc(S(C)(=O)=O)n1		inconclusive: 29.1 µM [falling, partial curve, poor fit]
Cc1ccc2nc(-c3ccccn3)cc(C(=O)Nc3ccc(S(=O)(=O)N4CCOCC4)cc3)c2c1	inconclusive: -2.7%	
COc1ccc(Cn2nnc3c(=O)[nH]c(C(=O)NCCc4ccc(F)cc4)nc32)cc1OC	inconclusive: 38.3%	
CCOc1ccc(NC(=O)C2CCC(CNc3c(N4CCOCC4)c(=O)c3=O)CC2)cc1 (configuration not stated)		inconclusive: 0.0046 µM [cytotoxic, full curve, poor fit]
COc1ccc(NC(=O)CCSc2nc(C)cs2)cc1	inconclusive: 25.8%	
Cc1ccc2nc(N(CCN(C)C)C(=O)/C=C/c3cccs3)sc2c1		inconclusive: 6.51 µM [activator, single point]
CCOC(=O)c1[nH]c2ccccc2c1NC(=S)Nc1cccc(C)c1C	inconclusive: 21.4%	
CC(=O)CSc1nnc(NC(=O)CCc2ccccc2)s1	inconclusive: 0.88%	
O=C(NC(=S)Nc1ccc(O)cc1)C1CCCC1		inconclusive: 3.26 µM [activator, partial curve]
c1coc(Cn2c(SCc3nc4ccccc4[nH]3)nnc2-c2cccs2)c1		inconclusive: 0.651 µM [activator, full curve]
Oc1ccc2ccccc2c1C=Nc1ccccc1	inconclusive: -99.6%	
COC(=O)c1cc(C(=O)Nc2ccc(C)cn2)cc([N+](=O)[O-])c1		inconclusive: 0.517 µM [activator, full curve, poor fit]
O=C(COC(=O)C1CCN(c2ccc(C(F)(F)F)cn2)CC1)NCc1ccc(F)cc1	inconclusive	
O=C(c1cccc(F)c1)N1CCCN(C(=O)c2cccc(F)c2)CC1	inconclusive: 16.3%	
O=C(Nc1nnc(CCc2ccccc2)s1)c1ccccc1	inconclusive: 59.6%	
N#C/C(=C\c1ccc(F)cc1)C(=O)Nc1ccccn1	inconclusive: -26.4%	
COCCSc1ccccc1C(=O)Nc1ccccc1C#N	inconclusive: -33.2% [at 0.369 µM]	
CCN(C(=O)COC(=O)c1ccc(=O)n(Cc2ccccc2)n1)C1CCCCC1		inconclusive: 2.59 µM [falling, partial curve, poor fit]

Structure (SMILES)	lipid storage change, negative = inhibition	Potency
CCOc1cc(N2CCOCC2)c(OCC)cc1NC(=O)CCS(=O)(=O)c1ccc(Cl)cc1		inconclusive: 0.0326 µM [activator, full curve, poor fit]
O=C(c1ccco1)N1N=C(c2ccc(Br)cc2)CC1c1ccco1 (configuration not stated)		inconclusive: 3.66 µM [activator, full curve, poor fit]
CC(=O)OCC(=O)[C@@]12OC(C)(C)O[C@@H]1CC1C3C[C@H](F)C4=CC(=O)C=CC4(C)[C@@]3(F)C(O)CC12C (some centres not stated)	inconclusive: 11.2%	
CCOc1ccc(-c2noc(CCC(=O)NCCc3ccccc3)n2)cc1OC	inconclusive: -24.3%	
N=c1c2c(-c3ccccc3)c(-c3ccccc3)n(Cc3ccco3)c2ncn1CCCN1CCOCC1	inconclusive: 33.5%	
O=C(NCc1ccc(Cl)cc1)c1cc2c(nc3sccn32)s1		inconclusive: 6.51 µM [activator, single point]
Cn1c(=O)n(Cc2ccccc2F)c(=O)c2c1nc1n2CCCN1CCc1ccccc1		inconclusive: 2.31 µM [rising, full curve, poor fit]
CCOc1cccc(C(=O)N2CCCCC2c2cccnc2)c1 (configuration not stated)	inconclusive: 4.5%	
COc1ccc(OC)c(/C=C2\SC(=S)N(NS(=O)(=O)c3ccc(C)cc3)C2=O)c1	inconclusive: -12.1%	
O=c1cc(CSc2ccc(Cl)cc2)nc(-c2ccccn2)[nH]1		inconclusive: 29.1 µM [falling, single point]
COCCCC/C(=N\OCCN)c1ccc(C(F)(F)F)cc1	inconclusive: 3.32%	
COc1ccccc1OCCCCNCCO		inconclusive: 4.11 µM [falling, full curve, poor fit]
CCCC(c1nnnn1Cc1cccs1)N1CCN(C2CCCC2)CC1 (configuration not stated)	inconclusive: 8.63%	
Cc1ccc(C(CC(=O)c2ccc(Cl)cc2)C(=O)O)cc1 (configuration not stated)		inconclusive: 0.116 µM [falling, partial curve, poor fit]
CCc1ccccc1NC(=S)N(CCN(C)C)Cc1cccs1	inconclusive: 6.45%	
CCOc1cc(S(=O)(=O)NCCc2ccccc2C)c(OCC)cc1-n1cnnn1		inconclusive: 6.51 µM [activator, single point]
CCc1cccc(CC)c1NC(=O)CN1CCN(c2ccccc2)CC1		inconclusive: 29.1 µM [activator, single point]
C=CCOC(=O)C(C#N)c1nc2ccccc2nc1N1CCN(c2ccccc2OCC)CC1 (configuration not stated)		inconclusive: 18.4 µM [cytotoxic, single point]
OC(COC1CCCCC1)CN1CCN(c2ccccc2)CC1 (configuration not stated)	inconclusive: -33.3%	
COc1cccc(C2=CC(=O)C[C@H](c3ccc(Cl)cc3)C2)c1		inconclusive: 16.4 µM [activator, partial curve]
COc1ccc(NC(=O)C(=O)c2cn(CC(=O)N3CCCC3)c3ccccc23)c(OC)c1	inconclusive: 38.1%	
Clc1cccc(OCCN2CCCC2)c1		inconclusive: 6.51 µM [activator, partial curve]
Cc1ccc(CNC(=O)CCN2C(=O)[C@@H]3Cc4ccccc4CN3C2=O)cc1		inconclusive: 6.51 µM [activator, single point]

Not a retest: an excerpt of the list.
Structure (SMILES)	lipid storage change, negative = inhibition	Potency
N=c1c2c(-c3ccccc3)c(-c3ccccc3)n(Cc3ccco3)c2ncn1CCCN1CCOCC1	inconclusive: 33.5%	
O=C(NCc1ccc(Cl)cc1)c1cc2c(nc3sccn32)s1		inconclusive: 6.51 µM [activator, single point]
Cn1c(=O)n(Cc2ccccc2F)c(=O)c2c1nc1n2CCCN1CCc1ccccc1		inconclusive: 2.31 µM [rising, full curve, poor fit]
CCOc1cccc(C(=O)N2CCCCC2c2cccnc2)c1 (configuration not stated)	inconclusive: 4.5%	
COc1ccc(OC)c(/C=C2\SC(=S)N(NS(=O)(=O)c3ccc(C)cc3)C2=O)c1	inconclusive: -12.1%	
O=c1cc(CSc2ccc(Cl)cc2)nc(-c2ccccn2)[nH]1		inconclusive: 29.1 µM [falling, single point]
COCCCC/C(=N\OCCN)c1ccc(C(F)(F)F)cc1	inconclusive: 3.32%	
COc1ccccc1OCCCCNCCO		inconclusive: 4.11 µM [falling, full curve, poor fit]
CCCC(c1nnnn1Cc1cccs1)N1CCN(C2CCCC2)CC1 (configuration not stated)	inconclusive: 8.63%	
Cc1ccc(C(CC(=O)c2ccc(Cl)cc2)C(=O)O)cc1 (configuration not stated)		inconclusive: 0.116 µM [falling, partial curve, poor fit]
CCc1ccccc1NC(=S)N(CCN(C)C)Cc1cccs1	inconclusive: 6.45%	
